According to PubChem BioAssay AID743402 (Broad Institute, 2014):
About 140 (12%) of roughly 1,200 compounds were called active.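 The calls were made as follows: active = fitted curve falls past -35% activity change at a dose under twice the top valid dose, in every replicate test; inconclusive = replicate tests disagree on the call; inactive = the rest, including activity in the opposite direction.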 The list lacks most of the strong results.

Assay: restoration of mutant CFTR halide transport – FRT cells, YFP quenching, cherry-pick, dose response (AID 743402);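 also: compounds act as correctors raising surface CFTR-F508del before acute activation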
Settings: FRT CFTR-F508del YFP iodide quenching, 24 h, channel opened with forskolin and a potentiator; at 26 µM (top of the series) unless noted

Activity change, negative = more quenching (active), inactive:
COC(=O)c1c(-c2ccc(C)cc2)csc1NC(=O)c1c(-c2ccccc2)noc1C 3.33%, COC(=O)c1cn(NC(=O)c2cc([N+](=O)[O-])ccc2F)c(=O)c2ccccc12 9.58%, CCC1=Nc2cc(C(=O)NCC3CCCO3)ccc2Sc2ccc(Cl)cc21 (stereo not given) 0%, C=C1C(=O)[C@]23C[C@H]1CC[C@H]2[C@]1(C)[C@@H](OC(C)=O)CC[C@@](C)(C(=O)O)[C@H]1C[C@@H]3O 10%, COc1ccc(Nc2nc(-c3sc(C)nc3C)cs2)cc1 -19.2%, COc1cc2c(cc1OC)C(c1cccs1)N(C(=O)c1cccnc1)CC2 (stereo not given) -3.33%, Cc1nnc(NC(=O)CSc2nccn2-c2cccc(C)c2C)s1 0%, O=C1CN(S(=O)(=O)Cc2ccccc2)C[C@@H]2[C@@H](c3ccc(C#Cc4cccc(F)c4)cc3)[C@H](CO)N12 -3.57%, CCC(=O)NC(c1ccc(C)cc1)c1ccc2cccnc2c1O (stereo not given) 13.3%, C[C@H](CO)N1C[C@H](C)[C@H](CN(C)C(=O)NC2CCCCC2)Oc2cc(C#Cc3ccc(F)cc3)ccc2S1(=O)=O 16.5%, C/C=C/c1ccc2c(c1)O[C@@H](CN(C)C(=O)Nc1cccc(F)c1)[C@H](C)CN([C@H](C)CO)S2(=O)=O 6.91%, Cn1c(NCc2ccccc2F)nc2cc(-c3ccsc3)sc2c1=O -16.7%, CCOC(=O)CSC1=C(C#N)C(c2ccc(C)s2)CC(=O)N1 (stereo not given) 9.79%, Cc1cccc(OCC(=O)NNC(=O)c2ccc3nc[nH]c3c2)c1 1.61%, CCN(CC)C(=O)c1oc2ccc(S(=O)(=O)N3CC(C)CC(C)C3)cc2c1C (stereo not given) 17.5%, CC(C)(C)c1csc(NC(=O)Cc2cccs2)n1 -10%, N#C[C@H]1[C@H](c2ccc(C3=CCCCC3)cc2)[C@@H](CO)N1C(=O)NC1CCCCC1 -3.57%, COCCCN=C1NN=C(c2cc(C)n(Cc3ccccc3Cl)c2C)CS1 7.14%, Cc1csc2sc(-c3ccnc(SCC(=O)NCc4ccccc4)n3)c(C)c12 3.85%, COc1ccccc1N1CC(C(=O)Nc2ccc(S(=O)(=O)N3CCCC3)cc2)CC1=O (stereo not given) 9.58%, Cc1c(C2Nc3ccccc3C2C)[nH]c2ccccc12 (stereo not given) -3.57%, Nc1ccn([C@@H]2O[C@H](CO)[C@@H](O)[C@@H]2O)c(=O)n1 -6.67%, COc1cccc(NC(=O)CN2C(=O)NC3(CCCCCC3)C2=O)c1 6.67%, CC(C)(C)NC(=O)c1cccc2c1-c1ccccc1C2=O 8.99%, COc1cc(-c2noc(C)c2C#Cc2ccsc2)cc(OC)c1OC 7.96%, O=C(Nc1ccc(F)cc1)C1CCN(C(=O)c2ccc(F)cc2)CC1 7.96%, COC(=O)c1cn(C(=O)c2ccc(C)cc2C)c2ccccc12 7.42%, O=C(NCc1cccs1)c1cc(-c2ccccc2)nn1CC1CC(c2cccc([N+](=O)[O-])c2)=NO1 (stereo not given) 10%, CCN(c1cccc(C)c1)S(=O)(=O)c1ccc(-c2cc(C)no2)s1 6.67%, COc1ccc(-c2csc(NC(=S)NC(=O)/C=C/c3ccco3)n2)cc1OC -15.4%, Cc1c(OCC(=O)NCCN2CCOCC2)ccc2c3c(c(=O)oc12)CCC3 0%, CCOc1ccc(-c2cc(C(=O)N3CCN(c4ccccn4)CC3)c3ccccc3n2)cc1 22.5%, COc1ccc([N+](=O)[O-])cc1Nc1c2ccccc2nc2ccccc12 -20.9%, Cc1ccc(C(=O)NNC(=O)c2ccc(S(=O)(=O)N3CCCCC3)cc2)cc1 20.9%, O=C(C[C@H]1CC[C@@H]2[C@H](COC[C@@H](O)CN2S(=O)(=O)c2ccccc2)O1)Nc1ccc(-c2ccccc2)cc1 14.3%, COc1ccccc1CNC(=O)Cn1cnnn1 16.7%, Oc1cccc(/C=N/Nc2ccc(Cl)nn2)c1O 9.79%, COc1ccccc1C#Cc1ccc2c(c1)O[C@@H](CN(C)Cc1cccnc1)[C@H](C)CN([C@H](C)CO)S2(=O)=O 1.85%, COc1ccccc1C#Cc1ccc2c(c1)O[C@@H](CN(C)Cc1cccnc1)[C@H](C)CN([C@@H](C)CO)S2(=O)=O 3.57%, COc1ccc(CNCC(=O)Nc2ccccc2-n2cccc2)cc1 16%, Cc1ccc(S(=O)(=O)Nc2cc(C)cc(CCNC=O)c2C)cc1 -1.85%, Cc1ccc(Cc2c(-c3ccc(C)cc3)nc3c(C)cc(Br)cn23)cc1 10.8%, Nc1nc(Cl)nc2c1ncn2C1CC(O)C(CO)O1 (stereo not given) -4.84%, Cc1cccc(C)c1OCC(=O)OCC(=O)Nc1ccc(Cl)cn1 -3.57%, CC(O)CNc1nc(N)[nH]c(=O)c1N=Nc1ccccc1 (stereo not given) 6.67%, CCNC(=S)NNC(=O)CC(C)C 6.46%, Clc1ccc(SCc2cc(N3CCOCC3)nc(-c3ccccn3)n2)cc1 3.12%, CC(=O)O[C@H]1C(=O)[C@]2(C)[C@H]([C@H](OC(=O)c3ccccc3)[C@]3(O)C[C@H](OC(=O)[C@H](O)[C@@H](NC(=O)c4ccccc4)c4ccccc4)C(C)=C1C3(C)C)[C@]1(OC(C)=O)CO[C@@H]1C[C@@H]2O 12.7%, COc1ccc(S(=O)(=O)N2CC[C@@H]3[C@@H](CO)Nc4ccc(-c5cccc(C#N)c5)cc4[C@@H]32)cc1 0%, O=C(Nc1ccccc1F)N1C[C@H]2[C@@H](c3ccccc31)[C@@H](CO)N2C(=O)c1ccccn1 3.57%, Cn1cccc1/C=C1\SC(=Nc2cccc(O)c2)NC1=O 8.28%, COc1ccc2sc3cccc(NCCN(C)C)c3c(=O)c2c1 -3.12%, COc1cc(/C=C(\CC(=O)O)c2nc3ccccc3s2)ccc1OCC(=O)Nc1ccccc1F 0%, OC[C@@H]1CN(Cc2ccc(-c3ccccc3)cc2)C[C@H](n2cnc3c(NC4CC4)ncnc32)O1 6.46%, Cc1ccc2[nH]c(C(=O)N/N=C/c3ccccc3O)c(C)c2c1 18.8%, Cc1cccc(COc2ccccc2C(=O)NC2CCC(O)CC2)c1 (stereo not given) 6.67%, COc1ccc(/C=C2\SC(=O)N(CCNC(=O)C3=COCCO3)C2=O)cc1 6.97%, CC(C)Oc1ncnc2c1[nH]c1ccccc12 6.67%, C[C@H](CO)N1C[C@H](C)[C@@H](CN(C)C(=O)NC2CCCCC2)Oc2cc(C#Cc3ccc(F)cc3)ccc2S1(=O)=O 17.1%, COc1cc(OC)cc(-c2nc3ccccc3c(=O)n2OC(=O)c2ccc(C)c(C)c2)c1 0%, COC(=O)c1ccc(C(=O)NC2CCCc3c2cnn3-c2ccc(C)c(C)c2)cc1 (stereo not given) 3.33%, CO[C@H]1CN(C)C(=O)c2cc(NC(C)=O)ccc2OC[C@H](C)N(C(=O)c2ccncc2)C[C@H]1C 7.14%, CCOc1ccc(C(=O)NCC(=O)N2CCN(Cc3ccccc3)CC2)cc1 7.96%, Cc1ncc(CO)c(/C=N/Nc2ccc(C(F)(F)F)cn2)c1O -6.46%, COc1cc(/C=C(\C#N)C(=O)c2c[nH]c3ccccc23)cc(OC)c1O -37.5%, CC#CCOCC1CNC(=O)O1 (stereo not given) 0%, CC1CCN(S(=O)(=O)N2CCCC(C(=O)NCc3ccccc3Cl)C2)CC1 (stereo not given) 13.3%, CC1(Cc2ccc(F)cc2)C(=O)Nc2c(Cl)ccc(Cl)c21 (stereo not given) 3.33%, Cc1ccc(C(=O)NCC(=O)OCC(=O)NC(C)c2ccccc2)s1 (stereo not given) 13.3%, COc1cc(OC)c2c(-c3cccc(-c4sccc4C(C)=O)c3)cc(=O)oc2c1 -3.12%, C[C@H]1CCCCO[C@@H](CN(C)C(=O)Nc2ccc(C(F)(F)F)cc2)[C@@H](C)CN([C@@H](C)CO)C(=O)c2cc(NC(=O)Nc3ccc4c(c3)OCO4)ccc2O1 14.3%, O=C(NCc1ccccn1)c1n[nH]c(=O)c2ccccc12 9.79%, C/C(=N\NC(=O)c1c(Cl)c(C)nn1C)c1ccc(NC(=O)C2CCC2)cc1 7.96%, O=C(COC(=O)/C=C/c1ccccc1Cl)NC(=O)NCc1ccccc1 -3.33%, COc1ccc(/C=N/NC(=O)c2c(C)nc3ccc(Br)cn23)cc1OC 3.33%, Nc1[nH]nc2ncc3cc4ccccc4nc3c12 4.17%, C#CCN(C)CCCOc1ccc(Cl)cc1Cl 0%, COc1cccc(NC(=O)c2cnc(SCC(=O)NCc3ccc4c(c3)OCO4)n(C)c2=O)c1 10%, O=C(NCc1nnnn1-c1ccc(Cl)cc1)C(=O)c1c[nH]c2ccccc12 6.46%, COc1cc(C(=O)N/N=C(\c2ccccc2)c2ccccn2)cc(OC)c1OC 50%, N#Cc1nc(NCC(F)F)nc(Nc2cc(F)cc(F)c2)n1 -14.6%, COc1ccc(OC)c(N/C(N)=N/c2nc(C)cc(C)n2)c1 16.7%, COc1ccccc1N1CCN(C(CNS(=O)(=O)c2cccs2)c2cccnc2)CC1 (stereo not given) 3.12%, O=C(CCCN1CCC(O)(c2cccc(C(F)(F)F)c2)CC1)c1ccc(F)cc1 18.8%, Cc1ccc(-c2ccc3c(c2)O[C@@H](CN(C)Cc2ccccn2)[C@H](C)CN([C@H](C)CO)S3(=O)=O)cc1 -7.14%
